Earlier results, collected in patent US6469033B1, “Use of 1-hydroxy-2-pyridones for the treatment of skin diseases” (Aventis Pharma Deutschland GmbH, priority 1996, dated 2002).
At least one structure is not confirmed: it was looked up by name or label, or the drawing left a doubt.

Legend:
[1] = system: Staphylococcus epidermidis; settings: acne patients pretreated with antibiotics; cited from earlier work
Propionibacteria = settings: acne patients pretreated with antibiotics; cited from earlier work

Structure (SMILES): CCC[C@@H]1C[C@@H](C(=O)N[C@@H]([C@H]2O[C@H](SC)[C@H](O)[C@@H](O)[C@H]2O)[C@H](C)Cl)N(C)C1 [clindamycin]
- resistances found, share of the cases [1]: 40%
- resistances found, share of the cases (Propionibacteria): 11%
